This is a noisy data set.
B1: human tRNA-Pro; a variant is named by its letters at N, in order (parent)
chain: GGCTCGTTGGTCTAGNGGTATGATTCTCGCTTAGGGTGCGAGAGGTCCCGGGTTCNNATCCCGGACGAGCCC

Variants of: B1
Experiment: tRNA 5' processing efficiency (processed reads / all reads, maximum-likelihood estimate) (fraction); higher = more efficient 5' processing
Conditions: HEK293T; construct: CMV Pol-II promoter ((+)CMV library, decapped)
For GGCTCGTTGGTCTAGGGGTATGATTCTCGCTTAGGGTGCGAGAGGTCCCGGGTTGAGTTCCCGGACGAGCCC [GAG C55G A58T], the “tRNA 5' processing efficiency” value was 0.33. In the case of GGCTCGTTGGTCTAGAATTATGATTCTCGCTTAGGGTGCGAGAGGTCCCGGGTTAAGATCCCGGACGAGCCC [AAG G17A G18T C55A], the “tRNA 5' processing efficiency” value is reported as 0.4. In the case of GGCTCGTCGGTCTATGGTTATGATTCTCGCTTAGGGTGCGAGAGGTCCCGGGTTCAGATCCCGGACGAGCCC [GAG T8C G15T G18T], the “tRNA 5' processing efficiency” value is reported as 0.58. In the case of GGCTCGTTTGTCTAGTGGTATGATTCTCGCTTAGGGTGCGAGAGGTCCCGGGTCCAGCTCCCGGACGAGCCC [TAG G9T T54C A58C], the “tRNA 5' processing efficiency” value is reported as 0.25. With GGCTCGTTGGTCTCGGGGTCTGATTCTCGCTTAGGGTGCGAGAGGTCCCGGGTCCATGTCCCGGACGAGCCC [GAT A14C A20C T54C A58G] the “tRNA 5' processing efficiency” value was 0.25. For GGCTCGTGGGTCTAGAGTTGTGATTCTCGCTTAGGGTGCGAGAGGTCCCGGGTTCAGATCCCGGACGAGCCC [AAG T8G G18T A20G], the “tRNA 5' processing efficiency” value was 0.4. For GGCTCGTTGGTCTAGGGGTATGATTCTCGCTTAGGGTGCGAGAGGTCCCGGGTTAAGATCCCGGACGAGCCC [GAG C55A], the “tRNA 5' processing efficiency” value was 0.38. With GGCTCGTTGGTCTTGAGCGCTGATTCTCGCTTAGGGTGCGAGAGGTCCCGGGTTCATAGCCCGGACGAGCCC [AAT A14T G18C T19G A20C T59G] the “tRNA 5' processing efficiency” value was 0.25. In the case of GGCTCGTTGGTCTAGGGGTATGATTCTCGCTTAGGGTGCGAGAGGTCCCGGGTACAGATCCCGGACGAGCCC [GAG T54A], the “tRNA 5' processing efficiency” value is reported as 0.29. In the case of GGCTCGTTAGTCTAGGCGTTTGATTCTCGCTTAGGGTGCGAGAGGTCCCGGGTTCAGATCCCGGACGAGCCC [GAG G9A G17C A20T], the “tRNA 5' processing efficiency” value is reported as 0.33. For GGCTCGTTGGTCTAGCGGTTTGATTCTCGCTTAGGGTGCGAGAGGTCCCGGGTTTAGATCCCGGACGAGCCC [CAG A20T C55T], the “tRNA 5' processing efficiency” value was 0.2. In the case of GGCTCGTCGGTCTGTGGGTATGATTCTCGCTTAGGGTGCGAGAGGTCCCGGGTTCAGATCCCGGACGAGCCC [GAG T8C A14G G15T], the “tRNA 5' processing efficiency” value is reported as 0.5. For GGCTCGTGTGTCTAGGGGTATGATTCTCGCTTAGGGTGCGAGAGGTCCCGGGTTGAGGTCCCGGACGAGCCC [GAG T8G G9T C55G A58G], the “tRNA 5' processing efficiency” value was 0.33. In the case of GGCTCGTTGGTCTTGGGGCATGATTCTCGCTTAGGGTGCGAGAGGTCCCGGGTTCATCTCCCGGACGAGCCC [GAT A14T T19C A58C], the “tRNA 5' processing efficiency” value is reported as 0.25. In the case of GGCTCGTTGGTCTAGGGGTATGATTCTCGCTTAGGGTGCGAGAGGTCCCGGGTTCATGACCCGGACGAGCCC [GAT A58G T59A], the “tRNA 5' processing efficiency” value is reported as 0.26. With GGCTCGTTGGTCTAGGCTTATGATTCTCGCTTAGGGTGCGAGAGGTCCCGGGTTCAGATCCCGGACGAGCCC [GAG G17C G18T] the “tRNA 5' processing efficiency” value was 0.4. In the case of GGCTCGTTGGTCTAGGCCTATGATTCTCGCTTAGGGTGCGAGAGGTCCCGGGTTCAGATCCCGGACGAGCCC [GAG G17C G18C], the “tRNA 5' processing efficiency” value is reported as 0.2. In the case of GGCTCGTTGGTCTAGCGACATGATTCTCGCTTAGGGTGCGAGAGGTCCCGGGTTTAGAGCCCGGACGAGCCC [CAG G18A T19C C55T T59G], the “tRNA 5' processing efficiency” value is reported as 0.5. With GGCTCGTTGGTCTAGGAGTTTGATTCTCGCTTAGGGTGCGAGAGGTCCCGGGTTCAGATCCCGGACGAGCCC [GAG G17A A20T] the “tRNA 5' processing efficiency” value was 0.5. For GGCTCGTGGGTCTACGGGGATGATTCTCGCTTAGGGTGCGAGAGGTCCCGGGTTGAGATCCCGGACGAGCCC [GAG T8G G15C T19G C55G], the “tRNA 5' processing efficiency” value was 0.5. For GGCTCGTTAGTCTAGGGGTATGATTCTCGCTTAGGGTGCGAGAGGTCCCGGGTTCAGGTCCCGGACGAGCCC [GAG G9A A58G], the “tRNA 5' processing efficiency” value was 0.17. For GGCTCGTTGGTCTAGGTTTTTGATTCTCGCTTAGGGTGCGAGAGGTCCCGGGCTCAGATCCCGGACGAGCCC [GAG G17T G18T A20T T53C], the “tRNA 5' processing efficiency” value was 0.5. With GGCTCGTAGGTCTACCGGTATGATTCTCGCTTAGGGTGCGAGAGGTCCCGGGTTCAGATCCCGGACGAGCCC [CAG T8A G15C] the “tRNA 5' processing efficiency” value was 0.25. With GGCTCGTCAGTCTTGGGGTATGATTCTCGCTTAGGGTGCGAGAGGTCCCGGGTTCAGTACCCGGACGAGCCC [GAG T8C G9A A14T A58T T59A] the “tRNA 5' processing efficiency” value was 0.17. In the case of GACTCGTTGGTCTAGGGATGTGATTCTCGCTTAGGGTGCGAGAGGTCCCGGGTTAATATCCCGGACGAGCCC [GAT G2A G18A A20G C55A], the “tRNA 5' processing efficiency” value is reported as 0.4. With GGCTCGTGAGTCTAGGGGTATGATTCTCGCTTAGGGTGCGAGAGGTCCCGGGTTCAGATCCCGGACGAGCCC [GAG T8G G9A] the “tRNA 5' processing efficiency” value was 0.44. With GGCTCGTTGGTCTTCGCGTATGATTCTCGCTTAGGGTGCGAGAGGTCCCGGGTTCAGATCCCGGACGAGCCC [GAG A14T G15C G17C] the “tRNA 5' processing efficiency” value was 0.17. With GGCTCGTTGGTCTAGCGGTATGATTCTCGCTTAGGGTGCGAGAGGTCCCGGGTTAATATCCCGGACGAGCCC [CAT C55A] the “tRNA 5' processing efficiency” value was 0.17. With GGCTCGTTGGTCTAGCGGTATGATTCTCGCTTAGGGTGCGAGAGGTCCCGGGTTTAGATCCCGGACGAGCCC [CAG C55T] the “tRNA 5' processing efficiency” value was 0.14. For GGCTCGTTGGTCTTGGGGTATGATTCTCGCTTAGGGTGCGAGAGGTCCCGGGTTCATTCCCCGGACGAGCCC [GAT A14T A58T T59C], the “tRNA 5' processing efficiency” value was 0.25. In the case of GGCTCGTTGGTCTAGGTGTATGATTCTCGCTTAGGGTGCGAGAGGTCCCGGGGTCAGAACCCGGACGAGCCC [GAG G17T T53G T59A], the “tRNA 5' processing efficiency” value is reported as 0.29. For GGCTCGTTGGTCTGGGGGTGTGATTCTCGCTTAGGGTGCGAGAGGTCCCGGGTTCATATCCCGGACGAGCCC [GAT A14G A20G], the “tRNA 5' processing efficiency” value was 0.25. With GGCTCGTAGGTCTCGGAGTATGATTCTCGCTTAGGGTGCGAGAGGTCCCGGGTTTAGATCCCGGACGAGCCC [GAG T8A A14C G17A C55T] the “tRNA 5' processing efficiency” value was 0.33. With GGCTCGTTCGTCTAGTGCAATGATTCTCGCTTAGGGTGCGAGAGGTCCCGGGTTCAGATCCCGGACGAGCCC [TAG G9C G18C T19A] the “tRNA 5' processing efficiency” value was 0.25. For GGCTCGTTGGTCTAGATGTATGATTCTCGCTTAGGGTGCGAGAGGTCCCGGGTTCAGATCCCGGACGAGCCC [AAG G17T], the “tRNA 5' processing efficiency” value was 0.4. With GGCTCGTGCGTCTCGGGTTCTGATTCTCGCTTAGGGTGCGAGAGGTCCCGGGATTAGATCCCGGACGAGCCC [GAG T8G G9C A14C G18T A20C T53A C55T] the “tRNA 5' processing efficiency” value was 0.17. For GGCTCGTTGGTCTACGGGCATGATTCTCGCTTAGGGTGCGAGAGGTCCCGGGTTTAGATCCCGGACGAGCCC [GAG G15C T19C C55T], the “tRNA 5' processing efficiency” value was 0.2. In the case of GGCTCGTTGGTCTAGAGGTATGATTCTCGCTTAGGGTGCGAGAGGTCCCGGGGACAGTTCCCGGACGAGCCC [AAG T53G T54A A58T], the “tRNA 5' processing efficiency” value is reported as 0.4.
